Results published in the supplement of paper PMC12823440, “Inhibitors supercharge kinase turnover through native proteolytic circuits” (Nature, 2025).
The other results are listed elsewhere or left out. The calls rarely recur for the same compound in another form.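 Kinases were expressed as nanoluciferase fusions in K562 cells and luminescence was read every 4 h between 2 and 18 h as percent of control, DMSO set to 100% and a positive control to 0%. A time point counts as decreased when the signal drops significantly (2 sigma). The hit call is the authors' own, does not follow from the count of time points alone, and its rule is not shown.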

Protein sequences, listed by entry. Tags and fused reporters are not part of them. Lines headed by an entry give the natural chain unless they say otherwise; changes in a name come on top.
UniProt Q9NYA1, whole entry: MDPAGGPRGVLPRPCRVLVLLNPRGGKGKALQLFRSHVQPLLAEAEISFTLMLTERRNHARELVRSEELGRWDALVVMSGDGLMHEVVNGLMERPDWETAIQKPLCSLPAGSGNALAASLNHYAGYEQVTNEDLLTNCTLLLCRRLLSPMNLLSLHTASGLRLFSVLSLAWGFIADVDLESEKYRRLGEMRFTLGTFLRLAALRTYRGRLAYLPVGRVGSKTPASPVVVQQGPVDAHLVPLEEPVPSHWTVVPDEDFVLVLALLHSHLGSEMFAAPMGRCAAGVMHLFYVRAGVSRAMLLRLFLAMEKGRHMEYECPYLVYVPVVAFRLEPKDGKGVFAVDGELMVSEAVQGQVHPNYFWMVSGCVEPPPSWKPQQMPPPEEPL
UniProt Q15208: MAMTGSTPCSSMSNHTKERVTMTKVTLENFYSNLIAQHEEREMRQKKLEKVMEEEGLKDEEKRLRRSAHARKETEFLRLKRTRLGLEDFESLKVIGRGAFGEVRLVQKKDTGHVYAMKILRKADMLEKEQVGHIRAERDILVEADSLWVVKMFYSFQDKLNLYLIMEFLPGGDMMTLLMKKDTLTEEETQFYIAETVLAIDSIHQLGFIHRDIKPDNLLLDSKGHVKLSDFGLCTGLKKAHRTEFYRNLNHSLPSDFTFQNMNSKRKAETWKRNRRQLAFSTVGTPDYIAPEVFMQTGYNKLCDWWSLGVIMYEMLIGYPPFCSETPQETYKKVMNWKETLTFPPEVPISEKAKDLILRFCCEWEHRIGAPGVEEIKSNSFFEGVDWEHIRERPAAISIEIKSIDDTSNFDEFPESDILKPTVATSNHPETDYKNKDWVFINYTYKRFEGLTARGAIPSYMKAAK
UniProt Q96GD4, whole entry: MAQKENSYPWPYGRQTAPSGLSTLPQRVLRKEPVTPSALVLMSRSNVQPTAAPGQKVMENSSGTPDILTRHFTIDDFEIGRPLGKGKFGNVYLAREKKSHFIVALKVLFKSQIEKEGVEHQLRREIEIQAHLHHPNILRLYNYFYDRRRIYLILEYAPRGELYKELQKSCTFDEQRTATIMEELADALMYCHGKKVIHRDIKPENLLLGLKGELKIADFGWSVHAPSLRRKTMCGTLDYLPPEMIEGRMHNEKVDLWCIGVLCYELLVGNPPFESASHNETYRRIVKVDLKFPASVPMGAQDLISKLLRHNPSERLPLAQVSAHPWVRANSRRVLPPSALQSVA
UniProt P07947, whole entry, looked up: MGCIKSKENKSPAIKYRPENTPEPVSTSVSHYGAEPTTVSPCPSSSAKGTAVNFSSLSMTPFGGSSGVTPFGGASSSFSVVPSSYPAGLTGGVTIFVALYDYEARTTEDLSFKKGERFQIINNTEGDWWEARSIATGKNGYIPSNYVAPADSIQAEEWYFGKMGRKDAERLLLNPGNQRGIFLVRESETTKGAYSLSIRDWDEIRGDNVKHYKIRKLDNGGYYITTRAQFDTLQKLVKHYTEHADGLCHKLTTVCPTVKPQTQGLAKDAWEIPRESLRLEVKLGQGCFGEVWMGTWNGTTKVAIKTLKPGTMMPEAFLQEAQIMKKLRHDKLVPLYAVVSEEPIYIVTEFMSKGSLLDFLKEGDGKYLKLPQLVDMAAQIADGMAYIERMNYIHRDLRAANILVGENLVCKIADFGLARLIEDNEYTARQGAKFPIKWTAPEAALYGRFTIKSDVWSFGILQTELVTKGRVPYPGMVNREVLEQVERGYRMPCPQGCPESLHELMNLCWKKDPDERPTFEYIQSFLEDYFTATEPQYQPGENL
UniProt Q8IWU2: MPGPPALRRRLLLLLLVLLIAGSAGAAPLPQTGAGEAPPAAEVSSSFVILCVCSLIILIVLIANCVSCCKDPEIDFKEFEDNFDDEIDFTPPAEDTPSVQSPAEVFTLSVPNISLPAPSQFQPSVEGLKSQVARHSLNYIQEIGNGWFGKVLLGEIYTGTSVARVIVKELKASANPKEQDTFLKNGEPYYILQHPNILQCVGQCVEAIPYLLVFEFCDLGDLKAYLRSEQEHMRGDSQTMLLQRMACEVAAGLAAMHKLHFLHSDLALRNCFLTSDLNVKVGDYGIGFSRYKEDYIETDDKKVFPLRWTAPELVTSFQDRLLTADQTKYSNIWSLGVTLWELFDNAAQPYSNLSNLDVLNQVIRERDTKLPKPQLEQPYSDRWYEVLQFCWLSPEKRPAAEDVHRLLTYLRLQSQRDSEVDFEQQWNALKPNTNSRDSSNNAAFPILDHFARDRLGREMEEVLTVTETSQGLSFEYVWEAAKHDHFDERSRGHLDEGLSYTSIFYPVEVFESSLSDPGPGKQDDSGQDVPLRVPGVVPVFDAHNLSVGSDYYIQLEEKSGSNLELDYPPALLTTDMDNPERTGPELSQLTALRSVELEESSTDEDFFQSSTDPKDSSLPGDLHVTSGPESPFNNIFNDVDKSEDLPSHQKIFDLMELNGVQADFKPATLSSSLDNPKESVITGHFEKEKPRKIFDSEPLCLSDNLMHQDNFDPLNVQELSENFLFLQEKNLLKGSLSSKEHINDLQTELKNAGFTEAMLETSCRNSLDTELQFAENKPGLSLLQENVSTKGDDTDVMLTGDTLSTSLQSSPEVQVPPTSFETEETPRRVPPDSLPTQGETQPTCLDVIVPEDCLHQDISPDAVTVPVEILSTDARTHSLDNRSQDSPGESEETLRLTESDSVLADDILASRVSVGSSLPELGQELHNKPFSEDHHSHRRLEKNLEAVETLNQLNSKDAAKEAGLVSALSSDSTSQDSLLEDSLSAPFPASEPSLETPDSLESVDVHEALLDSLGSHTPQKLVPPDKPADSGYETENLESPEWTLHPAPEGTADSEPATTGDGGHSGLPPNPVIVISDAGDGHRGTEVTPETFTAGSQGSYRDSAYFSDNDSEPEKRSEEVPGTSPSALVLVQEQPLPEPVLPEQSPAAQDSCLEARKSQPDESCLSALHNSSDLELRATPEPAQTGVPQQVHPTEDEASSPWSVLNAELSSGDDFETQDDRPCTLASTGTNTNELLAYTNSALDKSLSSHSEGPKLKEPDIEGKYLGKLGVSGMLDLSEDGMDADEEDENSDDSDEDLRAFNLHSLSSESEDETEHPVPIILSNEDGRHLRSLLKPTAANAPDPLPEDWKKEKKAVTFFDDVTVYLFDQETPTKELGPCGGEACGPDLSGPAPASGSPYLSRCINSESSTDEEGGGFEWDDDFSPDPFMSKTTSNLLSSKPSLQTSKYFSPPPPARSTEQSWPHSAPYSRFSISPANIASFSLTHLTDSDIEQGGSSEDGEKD
UniProt O96017, whole entry: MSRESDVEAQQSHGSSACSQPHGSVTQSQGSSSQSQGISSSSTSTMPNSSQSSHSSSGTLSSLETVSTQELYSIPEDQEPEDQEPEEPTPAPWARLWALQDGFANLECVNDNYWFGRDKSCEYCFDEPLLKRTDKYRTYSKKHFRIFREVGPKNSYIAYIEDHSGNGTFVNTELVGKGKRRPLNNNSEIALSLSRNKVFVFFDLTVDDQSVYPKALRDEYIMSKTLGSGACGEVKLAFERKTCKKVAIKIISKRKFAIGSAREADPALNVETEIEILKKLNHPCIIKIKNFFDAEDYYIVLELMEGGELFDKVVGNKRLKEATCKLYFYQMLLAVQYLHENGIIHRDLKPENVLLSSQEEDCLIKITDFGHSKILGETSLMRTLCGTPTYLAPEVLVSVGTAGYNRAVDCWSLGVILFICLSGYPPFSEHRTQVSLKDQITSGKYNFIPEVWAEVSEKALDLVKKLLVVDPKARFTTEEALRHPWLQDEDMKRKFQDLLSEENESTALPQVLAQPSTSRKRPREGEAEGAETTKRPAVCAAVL
UniProt Q9BRS2: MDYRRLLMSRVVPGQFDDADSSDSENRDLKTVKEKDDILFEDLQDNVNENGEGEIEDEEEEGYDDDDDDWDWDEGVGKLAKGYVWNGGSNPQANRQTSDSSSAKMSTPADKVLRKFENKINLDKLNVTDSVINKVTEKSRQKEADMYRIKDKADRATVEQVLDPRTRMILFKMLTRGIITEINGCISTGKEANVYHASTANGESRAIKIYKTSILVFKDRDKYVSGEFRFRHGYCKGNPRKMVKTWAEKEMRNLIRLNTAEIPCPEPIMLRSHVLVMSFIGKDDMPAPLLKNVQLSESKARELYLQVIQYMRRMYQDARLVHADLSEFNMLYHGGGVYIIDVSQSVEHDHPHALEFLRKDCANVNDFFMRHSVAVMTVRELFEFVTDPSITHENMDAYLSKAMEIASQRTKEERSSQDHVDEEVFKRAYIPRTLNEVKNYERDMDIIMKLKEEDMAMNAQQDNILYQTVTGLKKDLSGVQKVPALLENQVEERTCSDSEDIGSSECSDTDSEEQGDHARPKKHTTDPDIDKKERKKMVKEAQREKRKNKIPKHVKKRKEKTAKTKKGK
UniProt Q08345: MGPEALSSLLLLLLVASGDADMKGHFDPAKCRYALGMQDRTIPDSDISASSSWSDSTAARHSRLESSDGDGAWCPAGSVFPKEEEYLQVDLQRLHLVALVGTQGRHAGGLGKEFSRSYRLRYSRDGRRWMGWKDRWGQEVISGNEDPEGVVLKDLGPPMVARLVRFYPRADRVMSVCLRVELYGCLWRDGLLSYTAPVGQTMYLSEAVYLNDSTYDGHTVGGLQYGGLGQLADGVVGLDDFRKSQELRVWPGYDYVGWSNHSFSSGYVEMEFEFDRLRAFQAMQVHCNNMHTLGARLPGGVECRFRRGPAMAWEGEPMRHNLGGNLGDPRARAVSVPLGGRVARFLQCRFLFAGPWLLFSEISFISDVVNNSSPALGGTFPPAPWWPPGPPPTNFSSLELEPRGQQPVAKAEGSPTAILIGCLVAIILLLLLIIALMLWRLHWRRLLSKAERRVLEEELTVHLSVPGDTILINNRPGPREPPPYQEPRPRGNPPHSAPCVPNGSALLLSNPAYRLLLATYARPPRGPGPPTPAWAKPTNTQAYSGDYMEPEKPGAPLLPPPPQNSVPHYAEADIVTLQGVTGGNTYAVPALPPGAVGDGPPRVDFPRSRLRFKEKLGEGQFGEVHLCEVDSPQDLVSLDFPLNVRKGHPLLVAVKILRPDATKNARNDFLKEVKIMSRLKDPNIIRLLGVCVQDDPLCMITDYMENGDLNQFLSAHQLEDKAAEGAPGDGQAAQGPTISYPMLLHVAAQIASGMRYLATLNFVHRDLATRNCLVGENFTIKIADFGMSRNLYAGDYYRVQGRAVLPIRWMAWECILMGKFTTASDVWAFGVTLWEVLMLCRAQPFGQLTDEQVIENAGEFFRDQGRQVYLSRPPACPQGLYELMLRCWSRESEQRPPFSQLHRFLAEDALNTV

What was measured:
Assay in all cases: number of time points (of 5) at which kinase-Nluc abundance scored as decreased, DMSO-normalised (count); higher = more persistent destabilization
[1] = compound: CC(=O)Nc1cccc(-n2c(=O)n(C3CC3)c(=O)c3c(Nc4ccc(I)cc4F)n(C)c(=O)c(C)c32)c1 [Trametinib]; conditions: 10 µM; K562; 2-18 h
[2] = compound: CC(=O)c1c(C)c2cnc(Nc3ccc(N4CCNCC4)cn3)nc2n(C2CCCC2)c1=O [Palbociclib (isethionate)]; conditions: 10 µM; K562; 2-18 h
[3] = compound: CC(=O)c1c(C)c2cnc(Nc3ccc(N4CCNCC4)cn3)nc2n(C2CCCC2)c1=O [Palbociclib (monohydrochloride)]; conditions: 10 µM; K562; 2-18 h
[4] = compound: CC(C)(C)n1nc(-c2cccc3ccccc23)c2c(N)ncnc21 [1-Naphthyl PP1 (hydrochloride)]; conditions: 10 µM; K562; 2-18 h
[5] = compound: CC(C)(C)n1nc(-c2cccc3ccccc23)c2c(N)ncnc21 [1-Naphthyl PP1]; conditions: 10 µM; K562; 2-18 h
[6] = compound: CC(C)NC[C@@H](C(=O)N1CCN(c2ncnc3c2[C@H](C)C[C@H]3O)CC1)c1ccc(Cl)cc1 [Ipatasertib (dihydrochloride)]; conditions: 10 µM; K562; 2-18 h
[7] = compound: CC(C)NC[C@@H](C(=O)N1CCN(c2ncnc3c2[C@H](C)C[C@H]3O)CC1)c1ccc(Cl)cc1 [Ipatasertib]; conditions: 10 µM; K562; 2-18 h
[8] = compound: CC(C)Nc1cc(-c2c[nH]c(C(=O)N[C@H](CO)c3cccc(Cl)c3)c2)c(Cl)cn1 [Ulixertinib (hydrochloride)]; conditions: 10 µM; K562; 2-18 h
[9] = compound: CC(C)Nc1cc(-c2c[nH]c(C(=O)N[C@H](CO)c3cccc(Cl)c3)c2)c(Cl)cn1 [Ulixertinib]; conditions: 10 µM; K562; 2-18 h
[10] = compound: CC(C)Oc1ccc(-c2nn([C@@H](C)c3oc4ccc(F)cc4c(=O)c3-c3cccc(F)c3)c3ncnc(N)c23)cc1F [Umbralisib (hydrochloride)]; conditions: 2.5 µM; K562; 2-18 h
[11] = compound: CC(C)Oc1ccc(-c2nn([C@@H](C)c3oc4ccc(F)cc4c(=O)c3-c3cccc(F)c3)c3ncnc(N)c23)cc1F [Umbralisib]; conditions: 2.5 µM; K562; 2-18 h
[12] = compound: CCCC(=O)Nc1ncnc2c1ncn2[C@@H]1O[C@@H]2COP(=O)(O)O[C@H]2[C@H]1OC(=O)CCC [Bucladesine (calcium)]; conditions: 10 µM; K562; 2-18 h
[13] = compound: CCCC(=O)Nc1ncnc2c1ncn2[C@@H]1O[C@@H]2COP(=O)(O)O[C@H]2[C@H]1OC(=O)CCC [Bucladesine (sodium)]; conditions: 10 µM; K562; 2-18 h
[14] = compound: CCCCCCCCc1ccc(CCC(N)(CO)CO)cc1 [Fingolimod (hydrochloride)]; conditions: 2.5 µM; K562; 2-18 h
[15] = compound: CCCCCCCCc1ccc(CCC(N)(CO)CO)cc1 [Fingolimod]; conditions: 2.5 µM; K562; 2-18 h
[16] = compound: CCN(CC)CC(=O)Nc1c(C)cccc1C [Lidocaine (hydrochloride)]; conditions: 10 µM; K562; 2-18 h
[17] = compound: CCN(CC)CC(=O)Nc1c(C)cccc1C [Lidocaine]; conditions: 10 µM; K562; 2-18 h
[18] = compound: CCN(CC)Cc1ccc(OC)c(-c2cc3c(-c4ccc(C(=O)O)c(C(C)C)c4)ccnc3[nH]2)c1; conditions: K562, 2-18 h
[19] = compound: CCS(=O)(=O)N1CC(CC#N)(n2cc(-c3ncnc4[nH]ccc34)cn2)C1 [Baricitinib (phosphate)]; conditions: 10 µM; K562; 2-18 h
[20] = compound: CCS(=O)(=O)N1CC(CC#N)(n2cc(-c3ncnc4[nH]ccc34)cn2)C1 [Baricitinib]; conditions: 10 µM; K562; 2-18 h

Target | number of time points [1] | number of time points [2] | number of time points [3] | number of time points [4] | number of time points [5] | number of time points [6] | number of time points [7] | number of time points [8] | number of time points [9] | number of time points [10] | number of time points [11] | number of time points [12] | number of time points [13] | number of time points [14] | number of time points [15] | number of time points [16] | number of time points [17] | number of time points ([18]; 2.5 µM) | number of time points ([18]; 10 µM) | number of time points [19] | number of time points [20]
SPHK1 (UniProt Q9NYA1) | 1 | 0 | 0 | 0 | 0 | 0 | 0 | 0 | 0 | 0 | 0 | 0 | 0 | 0 | 3 | 0 | 0 | 0 | 0 | 0 | 0
STK38 (UniProt Q15208) | 0 | 1 | 0 | 0 | 0 | 0 | 0 | 0 | 0 | 0 | 0 | 0 | 0 | 0 | 0 | 0 | 0 | 0 | 0 | 0 | 0
AURKB (UniProt Q96GD4) | 1 | 3 | 0 | 0 | 0 | 0 | 0 | 0 | 0 | 0 | 0 | 0 | 0 | 0 | 0 | 0 | 0 | 0 | 0 | 0 | 0
YES1 (UniProt P07947) | 0 | 0 | 0 | 0 | 0 | 0 | 0 | 0 | 0 | 0 | 0 | 0 | 0 | 0 | 0 | 0 | 0 | 0 | 0 | 0 | 0
LMTK2 (UniProt Q8IWU2) | 0 | 3 | 0 | 0 | 0 | 0 | 0 | 0 | 0 | 0 | 0 | 0 | 0 | 0 | 0 | 0 | 0 | 2 | 0 | 0 | 0
CHEK2 (UniProt O96017) | 0 | 0 | 0 | 0 | 0 | 0 | 0 | 0 | 0 | 0 | 0 | 0 | 0 | 0 | 0 | 0 | 0 | 0 | 0 | 0 | 0
RIOK1 (UniProt Q9BRS2) | 0 | 2 | 0 | 0 | 0 | 0 | 0 | 0 | 0 | 0 | 0 | 0 | 0 | 0 | 0 | 0 | 0 | 0 | 0 | 0 | 0
EGFR_L718V (UniProt P00533) | 0 | 0 | 0 | 0 | 0 | 0 | 0 | 0 | 0 | 0 | 0 | 0 | 0 | 0 | 0 | 0 | 0 | 0 | 0 | 0 | 0
DDR1 (UniProt Q08345) | 0 | 3 | 0 | 0 | 0 | 0 | 0 | 0 | 0 | 0 | 0 | 0 | 0 | 0 | 0 | 0 | 0 | 0 | 0 | 0 | 0
